Data from patent publication US8859223B1, “Compositions and methods for imaging beta-secretase activity in living cells and organisms” (Duke University, priority 2012, dated 2014).

System: HeLa cell membranes, lipid raft domains
Assay: Lipid raft localization by dual fluorescence confocal microscopy
Format: cell-based
Conditions: 2 μM probe, 3 hrs, 37° C., HeLa cells

Fluorescein-labeled SEQ ID NO: 1 peptide without the cholesterol anchor: Fluorescein-labeled SEQ ID NO: 1 peptide without the cholesterol anchor (EVNLDAHFWADR; fluorescein label)
cellular localization of the probe: not visible using fluorescence microscopy

probe described above for FIG. 3: fluorescein on N-terminus of SEQ ID NO: 1 peptide, cholesterol-modified aspartic acid tethered directly to C-terminus without PEG linker (EVNLDAHFWADR; N-terminal fluorescein; C-terminal cholesterol-modified Asp)
cellular localization of the probe: concentrates it in lipid raft domains
